# Experimental data as given in PMC8353492.
# Amino acid sequences for entries named in this document (tags omitted).
# UniProt P19878: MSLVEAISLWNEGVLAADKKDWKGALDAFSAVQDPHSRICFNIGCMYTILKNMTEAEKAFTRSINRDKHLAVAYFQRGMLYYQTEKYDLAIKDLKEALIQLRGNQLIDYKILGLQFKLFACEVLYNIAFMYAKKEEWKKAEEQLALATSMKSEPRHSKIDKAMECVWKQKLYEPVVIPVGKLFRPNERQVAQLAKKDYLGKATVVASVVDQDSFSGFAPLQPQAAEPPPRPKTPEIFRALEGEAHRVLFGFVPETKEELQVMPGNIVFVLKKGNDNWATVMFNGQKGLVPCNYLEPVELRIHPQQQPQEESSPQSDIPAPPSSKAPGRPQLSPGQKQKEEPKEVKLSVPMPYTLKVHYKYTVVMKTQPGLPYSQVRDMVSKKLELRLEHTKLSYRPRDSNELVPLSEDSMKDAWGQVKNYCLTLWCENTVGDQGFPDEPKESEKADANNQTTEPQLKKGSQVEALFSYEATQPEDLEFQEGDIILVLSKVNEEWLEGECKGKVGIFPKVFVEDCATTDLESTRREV
# UniProt P14598: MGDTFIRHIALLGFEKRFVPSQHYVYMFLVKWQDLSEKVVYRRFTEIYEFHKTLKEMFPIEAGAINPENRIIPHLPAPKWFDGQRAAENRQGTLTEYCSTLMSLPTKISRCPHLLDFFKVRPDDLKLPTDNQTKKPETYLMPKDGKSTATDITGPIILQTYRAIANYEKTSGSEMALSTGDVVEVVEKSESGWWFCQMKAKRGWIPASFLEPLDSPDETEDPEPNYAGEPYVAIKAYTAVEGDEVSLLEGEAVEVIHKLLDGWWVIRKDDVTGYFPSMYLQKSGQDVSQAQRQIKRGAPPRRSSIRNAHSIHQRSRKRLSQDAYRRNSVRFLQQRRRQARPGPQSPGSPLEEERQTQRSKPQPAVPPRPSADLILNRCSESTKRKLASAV
# Results are given in words; binding and its absence hold for the method and conditions named. For some of these results: In cells and extracts the contact can be indirect. Some binding calls cover weakened binding; strength is not graded here.
# T1: gp91 (of cytochrome b558) in dHL60 cells (human (endogenous in HL60)) (UniProt P04839)
# T1 sequence: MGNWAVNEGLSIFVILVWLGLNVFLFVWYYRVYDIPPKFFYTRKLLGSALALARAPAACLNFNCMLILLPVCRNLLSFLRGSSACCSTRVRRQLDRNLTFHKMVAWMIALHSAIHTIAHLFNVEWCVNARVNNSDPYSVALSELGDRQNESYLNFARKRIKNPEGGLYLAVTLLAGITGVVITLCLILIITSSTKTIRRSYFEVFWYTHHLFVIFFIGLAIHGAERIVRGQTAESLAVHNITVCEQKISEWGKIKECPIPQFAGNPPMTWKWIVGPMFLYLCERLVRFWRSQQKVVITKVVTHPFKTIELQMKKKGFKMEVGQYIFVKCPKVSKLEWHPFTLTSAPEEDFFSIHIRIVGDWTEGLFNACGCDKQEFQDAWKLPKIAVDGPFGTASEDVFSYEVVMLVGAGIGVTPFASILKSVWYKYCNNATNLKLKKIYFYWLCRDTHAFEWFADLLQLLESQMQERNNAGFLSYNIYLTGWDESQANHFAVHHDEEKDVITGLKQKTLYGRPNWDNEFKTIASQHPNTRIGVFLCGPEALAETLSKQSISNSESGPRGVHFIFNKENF
# T2: gp91 (NOX2) from the HEK293 cell line (UniProt P04839)
# T2 sequence: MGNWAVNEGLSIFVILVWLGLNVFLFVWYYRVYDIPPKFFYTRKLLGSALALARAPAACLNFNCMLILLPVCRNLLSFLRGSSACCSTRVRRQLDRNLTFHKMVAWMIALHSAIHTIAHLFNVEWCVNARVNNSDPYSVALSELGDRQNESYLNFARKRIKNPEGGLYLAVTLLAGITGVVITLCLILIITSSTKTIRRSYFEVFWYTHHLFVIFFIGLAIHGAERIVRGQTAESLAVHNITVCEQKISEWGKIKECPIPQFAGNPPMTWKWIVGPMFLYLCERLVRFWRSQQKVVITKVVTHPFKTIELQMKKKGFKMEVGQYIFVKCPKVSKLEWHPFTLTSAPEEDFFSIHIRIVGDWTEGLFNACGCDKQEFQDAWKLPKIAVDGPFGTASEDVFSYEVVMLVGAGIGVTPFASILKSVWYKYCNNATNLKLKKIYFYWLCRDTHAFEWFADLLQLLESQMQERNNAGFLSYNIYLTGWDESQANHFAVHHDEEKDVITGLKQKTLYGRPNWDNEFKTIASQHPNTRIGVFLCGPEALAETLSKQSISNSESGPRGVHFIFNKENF
# How the values were obtained:
# [1] = molecular target: T1, gp91 (of cytochrome b558) in dHL60 cells (human (endogenous in HL60)); assay: co-IP; as a5, in G12V Rac-expressing dHL60 cells; data not shown
# [2] = molecular target: T1, gp91 (of cytochrome b558) in dHL60 cells (human (endogenous in HL60)); assay: co-IP; PMA-stimulated dHL60 cells, time course; plasma membrane fraction in 5 mM MgCl2, 2% Triton X-100, 50 mM Tris-HCl pH 7.4; pulled down with magnetic agarose beads carrying a monoclonal gp91 antibody; Western blots for p40, p47, p67, Rac; also cells treated with SITS or DIDS (100 μM; recruitment of wt Rac significantly impeded) and Vav knocked-down cells with exogenous O2^− (∼2 μM)
# [3] = molecular target: T2, gp91 (NOX2) from the HEK293 cell line; assay: co-purification (heparin and hydroxyapatite chromatography); cytochrome b558 purified from a HEK293 cell line that stably expresses NOX2 with p22
Molecule,binding [1],binding [2],binding [3]
p67 in dHL60 cells (from UniProt P19878 1-526),binds,binds,–
p47 in dHL60 cells (from UniProt P14598 1-390),binds,binds,–
"p40 in dHL60 cells (protein, UniProt Q15080 1-339) MAVAQQLRAESDFEQLPDDVAISANIADIEEKRGFTSHFVFVIEVKTKGGSKYLIYRRYRQFHALQSKLEERFGPDSKSSALACTLPTLPAKVYVGVKQEIAEMRIPALNAYMKSLLSLPVWVLMDEDVRIFFYQSPYDSEQVPQALRRLRPRTRKVKSVSPQGNSVDRMAAPRAEALFDFTGNSKLELNFKAGDVIFLLSRINKDWLEGTVRGATGIFPLSFVKILKDFPEEDDPTNWLRCYYYEDTISTIKDIAVEEDLSSTPLLKDLLELTRREFQREDIALNYRDAEGDLVRLLSDEDVALMVRQARGLPSQKRLFPWKLHITQKDNYRVYNTMP",binds,binds,–
"p22 from the HEK293 cell line (protein, UniProt P13498 1-195) MGQIEWAMWANEQALASGLILITGGIVATAGRFTQWYFGAYSIVAGVFVCLLEYPRGKRKKGSTMERWGQKYMTAVVKLFGPFTRNYYVRAVLHLLLSVPAGFLLATILGTACLAIASGIYLLAAVRGEQWTPIEPKPRERPQIGGTIKQPPSNPPPRPPAEARKKPSEEEAAVAAGGPPGGPQVNPIPVTDEVV",–,–,binds
